Source: article PMC9902531
Results are given in words; binding and its absence hold for the method and conditions named. Binding seen in cells or lysates may run through a third protein. Some results given as binding are weak or reduced against the parent protein; the word gives no strength.

Chains of the proteins cited; added tags and fusions are not shown.
UniProt Q6NZB1: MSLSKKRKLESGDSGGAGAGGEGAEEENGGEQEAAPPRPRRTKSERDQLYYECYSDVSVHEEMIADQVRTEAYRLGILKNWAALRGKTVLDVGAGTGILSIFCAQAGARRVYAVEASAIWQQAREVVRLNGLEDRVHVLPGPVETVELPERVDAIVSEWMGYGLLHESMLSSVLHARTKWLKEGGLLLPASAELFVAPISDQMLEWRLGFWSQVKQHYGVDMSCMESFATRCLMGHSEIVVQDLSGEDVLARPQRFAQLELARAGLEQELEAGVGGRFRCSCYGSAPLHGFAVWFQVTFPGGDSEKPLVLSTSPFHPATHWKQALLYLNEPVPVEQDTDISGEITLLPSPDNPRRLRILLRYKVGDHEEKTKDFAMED
UniProt P19091: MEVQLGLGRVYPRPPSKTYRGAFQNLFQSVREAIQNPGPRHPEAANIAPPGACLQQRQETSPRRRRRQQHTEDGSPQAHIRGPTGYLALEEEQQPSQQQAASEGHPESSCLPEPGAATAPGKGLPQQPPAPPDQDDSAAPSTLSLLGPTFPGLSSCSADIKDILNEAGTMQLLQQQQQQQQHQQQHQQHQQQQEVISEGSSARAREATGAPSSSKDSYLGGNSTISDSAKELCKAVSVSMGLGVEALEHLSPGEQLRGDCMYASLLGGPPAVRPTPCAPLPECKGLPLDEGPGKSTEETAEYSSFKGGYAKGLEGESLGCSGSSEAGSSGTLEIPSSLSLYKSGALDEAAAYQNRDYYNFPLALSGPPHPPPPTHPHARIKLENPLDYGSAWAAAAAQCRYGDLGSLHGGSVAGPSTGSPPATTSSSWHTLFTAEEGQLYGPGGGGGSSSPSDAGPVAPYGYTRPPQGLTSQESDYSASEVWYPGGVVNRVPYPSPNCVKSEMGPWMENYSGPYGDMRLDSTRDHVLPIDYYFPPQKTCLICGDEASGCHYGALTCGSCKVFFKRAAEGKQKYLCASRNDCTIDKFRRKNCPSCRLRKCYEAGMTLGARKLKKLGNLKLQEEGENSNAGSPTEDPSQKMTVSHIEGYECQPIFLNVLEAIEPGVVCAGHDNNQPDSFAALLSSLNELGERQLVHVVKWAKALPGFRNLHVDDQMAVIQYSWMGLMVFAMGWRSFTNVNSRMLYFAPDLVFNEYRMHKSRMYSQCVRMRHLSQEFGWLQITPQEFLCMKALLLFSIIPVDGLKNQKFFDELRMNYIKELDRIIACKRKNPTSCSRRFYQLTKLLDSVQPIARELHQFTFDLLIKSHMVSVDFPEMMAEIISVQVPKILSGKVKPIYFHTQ

Molecular target: endogenous PRMT6 (mouse) (mouse (endogenous in MN1 cells and in quadriceps muscle)) (UniProt Q6NZB1)
Assay: co-IP; quadriceps muscle of 24-week-old WT and knock-in AR113Q mice; immunoprecipitation with anti-PRMT6 (Bethyl A300-929A) or nonimmune rabbit IgG, protein A magnetic beads; IP buffer 50 mM HEPES, 250 mM NaCl, 5 mM EDTA, 0.1% NP40

- binding: binds
Substance: androgen receptor of WT mice (endogenous) (from UniProt P19091 1-899)
